Experimental data from publication PMC11310345.
These are yes or no findings as the source states them, for the method shown. In cells and extracts the contact can be indirect. Some binding calls cover weakened binding; strength is not graded here. For part of these data: Where a sequence is shown, tags or fusion partners need not be part of it.

Columns and labels:
[1] = biological target: T1, RIMKLA-His fusion protein (recombinant RIMKLA) (mouse) (UniProt Q6PFX8); experiment: pull-down; RIMKLA-His from E. coli lysate held on His-tag purification resin (empty vector PET28a lysate as control), washed; total cell extracts added overnight; western blot with antibodies against RIMKLA or BHMT1; only the target purified
T1 sequence: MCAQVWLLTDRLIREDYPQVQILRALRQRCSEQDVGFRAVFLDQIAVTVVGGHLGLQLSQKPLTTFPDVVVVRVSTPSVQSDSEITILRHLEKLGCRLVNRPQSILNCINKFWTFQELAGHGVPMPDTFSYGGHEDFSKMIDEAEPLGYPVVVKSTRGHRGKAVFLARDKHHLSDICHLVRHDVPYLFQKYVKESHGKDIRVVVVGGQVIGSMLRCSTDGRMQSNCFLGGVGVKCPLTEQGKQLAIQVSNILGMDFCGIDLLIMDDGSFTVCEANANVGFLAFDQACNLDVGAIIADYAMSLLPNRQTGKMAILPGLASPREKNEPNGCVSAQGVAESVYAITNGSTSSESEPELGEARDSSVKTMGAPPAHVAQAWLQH

[2] = biological target: T2, RIMKLA containing 6×His-tag, overexpressed from adenovirus (Ad-RIMKLA) (UniProt Q6PFX8); experiment: co-IP; cross co-IP: protein A/G Sepharose beads crosslinked with 10 µg RIMKLA or BHMT1 antibodies (IgG as negative control); 1 mg total protein of mouse primary hepatocytes infected with Ad-GFP or Ad-RIMKLA for 24 h, overnight at 4 °C; immunoblot
T2 sequence: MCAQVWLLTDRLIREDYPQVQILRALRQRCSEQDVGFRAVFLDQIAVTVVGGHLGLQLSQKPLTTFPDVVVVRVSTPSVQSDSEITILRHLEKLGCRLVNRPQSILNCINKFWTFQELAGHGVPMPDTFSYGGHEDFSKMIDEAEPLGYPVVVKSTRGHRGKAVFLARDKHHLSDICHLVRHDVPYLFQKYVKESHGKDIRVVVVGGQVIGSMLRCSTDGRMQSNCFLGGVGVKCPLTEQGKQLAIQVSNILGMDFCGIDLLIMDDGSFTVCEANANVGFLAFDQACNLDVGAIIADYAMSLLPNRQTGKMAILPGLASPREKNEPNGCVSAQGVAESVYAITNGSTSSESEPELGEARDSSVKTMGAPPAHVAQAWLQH

[3] = biological target: T3, ribosomal modification protein rimK-like family member A (RIMKLA), endogenous (mouse (endogenous in primary mouse hepatocytes)) (UniProt Q6PFX8); experiment: as above
T3 sequence: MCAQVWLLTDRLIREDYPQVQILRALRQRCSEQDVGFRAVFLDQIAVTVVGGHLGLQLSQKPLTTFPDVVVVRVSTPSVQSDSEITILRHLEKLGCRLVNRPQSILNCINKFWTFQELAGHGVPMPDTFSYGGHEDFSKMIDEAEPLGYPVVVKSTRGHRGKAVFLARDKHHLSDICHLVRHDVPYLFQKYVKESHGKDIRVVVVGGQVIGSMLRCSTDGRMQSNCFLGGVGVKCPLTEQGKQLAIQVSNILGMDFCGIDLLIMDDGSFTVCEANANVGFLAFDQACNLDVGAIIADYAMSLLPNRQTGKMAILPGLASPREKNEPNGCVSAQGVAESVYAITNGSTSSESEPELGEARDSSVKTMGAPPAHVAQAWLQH

binding [1]: binds
binding [2]: binds
binding [3]: binds
B1: betaine-homocysteine S-methyltransferase 1 (BHMT1), endogenous (enzyme, UniProt O35490 1-407)
chain: MAPVAGKKAKKGILERLNAGEVVIGDGGFVFALEKRGYVKAGPWTPEAAVEHPEAVRQLHREFLRAGSNVMQTFTFYASEDKLENRGNYVAEKISGQKVNEAACDIARQVADEGDALVAGGVSQTPSYLSCKSEVEVKKIFRQQLEVFMKKNVDFLIAEYFEHVEEAVWAVEALKASGKPVAATMCIGPEGDLHGVPPGECAVRLVKAGASIVGVNCHFDPSVSLQTVKLMKEGLEAARLKAYLMSQPLAYHTPDCGKQGFIDLPEFPFGLEPRVATRWDIQKYAREAYNLGVRYIGGCCGFEPYHIRAIAEELAPERGFLPPASEKHGSWGSGLDMHTKPWIRARARKEYWQNLRIASGRPYNPSMSRPDAWGVTKGAAELMQQKEATTEQQLRELFEKQKFKSAQ
